The list shows a part of the results. Further columns of the screen follow, without active or inactive calls. The list favours compounds with an active or inconclusive main result. Potencies come from curve fits of mixed quality, noted in brackets.
Test: qHTS Assay for Lipid Storage Modulators in Drosophila S3 Cells;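 on cell number change: cells counted by Cell Tracker Red CMTPX staining in the red channel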
Details: BODIPY lipid droplet fluorescence, 18-24 h; for cell number change: measured here: cell count max response, cells fed with added oleic acid
Summary of the method: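 Drosophila S3 cells got compounds at several concentrations plus oleic acid (400 uM solution). Laser-scanning cytometry with 488 nm excitation read lipid droplets at 500-530 nm and cells at 575-640 nm. Percent activity was relative to 20 uM Triacsin C.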

[1] = measured here: lipid fluorescence (Fed channel) AC50, cells fed with added oleic acid
[2] = measured here: cell number channel AC50, cells fed with added oleic acid

SMILES	cell number change	AC50 [1]	AC50 [2]
CCCNC(=O)c1nc2ncc(Br)cn2n1	-0.628%	0.164 µM [falling, full curve]	–
CCn1cc(C(=O)NCCc2ccccc2)c(=O)c2cc(F)c(N3CCN(C)CC3)cc21	–	0.58 µM [rising, single point]	–
COc1ccc(C(=O)COC(=O)c2ccc(-n3cnnn3)cc2)c(OC)c1	2.81%	–	–
COc1ccc(CNC(=O)CNC(=O)N2CC(=O)Nc3ccccc32)cc1	2.28%	29.1 µM [rising, single point]	–
O=C(Nc1ccc2c(c1)OCO2)c1c(F)c(F)c(F)c(F)c1F	-4.43%	16.4 µM [rising, single point]	–
CC(=O)c1c(O)cc(O)c(C(C)=O)c1O	-41.9%	29.1 µM [falling, single point]	16.4 µM [falling, single point]
CCCNC(=O)CN(C1CCCCC1)S(C)(=O)=O	-17.3%	–	1.84 µM [falling, partial curve]
Cc1ccc(SCC(=O)Nc2cccc(S(=O)(=O)N3CCOCC3)c2)cc1C	15%	–	–
O=C(NCCCN1CCOCC1)c1cc(Cl)ccc1[N+](=O)[O-]	–	29.1 µM [rising, single point]	–
CC12CC(c3ccccc3O1)N(C(=O)c1ccc(Br)o1)C(=O)N2c1ccccc1 (stereo not given)	37.8%	–	4.61 µM [rising, partial curve]
O=C(/C=C\Nc1ccc(Cl)cn1)c1ccc(Br)cc1	-9.55%	23.1 µM [falling, single point]	–
CCOCCCn1c(SCC(=O)N2CCOCC2)nc2ccccc2c1=O	18.9%	29.1 µM [falling, single point]	–
COc1cccc(Nc2nnc(SCn3nnc4ccccc4c3=O)s2)c1	-10.6%	2.59 µM [rising, full curve, poor fit]	–
CCC(=O)c1ccc(N2CCN(C(=O)c3cccs3)CC2)c(F)c1	2.59%	29.1 µM [falling, single point]	–
O=C1Nc2ccccc2C(=O)N2C[C@@H](O)C[C@H]12	18.5%	10.3 µM [rising, partial curve, poor fit]	–
COC(=O)c1sccc1NC(=O)c1ccc(Br)s1	–	6.51 µM [rising, single point]	–
CCOC(=O)c1nnc(-c2ccccc2)nc1Sc1c(Cl)cccc1Cl	-17.3%	0.184 µM [falling, full curve, poor fit]	–
c1cncc(-c2ccc3ncnc(NCc4cccs4)c3c2)c1	26.6%	9.2 µM [rising, partial curve, poor fit]	–
CCOC(=O)c1nnn(-c2nonc2-n2cccc2)c1C	0.331%	–	–
O=C(CCN1C(=O)c2ccccc2S1(=O)=O)Nc1cc(Cl)ccc1Cl	-75%	–	29.1 µM [falling, single point]
COCc1nnc(SCC(=O)NCc2ccccc2)n1-c1ccccc1	-8.09%	–	–

Single records (already shown). Order of values: cell number change | AC50 [1] | AC50 [2]
CCOCCCn1c(SCC(=O)N2CCOCC2)nc2ccccc2c1=O in the list: 18.9% | 29.1 µM [falling, single point] | –
CC(=O)c1c(O)cc(O)c(C(C)=O)c1O in the list: -41.9% | 29.1 µM [falling, single point] | 16.4 µM [falling, single point]

More results follow:

SMILES	cell number change	AC50 [1]	AC50 [2]
O=C(CSc1ncnc2c1oc1ccccc12)NCc1ccco1	-52.4%	–	9.2 µM [falling, partial curve]
CCc1ccc(NC(=O)C(C)OC(=O)c2cc(=O)[nH]c3ccc(S(=O)(=O)Nc4ccc(F)cc4)cc23)cc1 (stereo not given)	81.2%	–	29.1 µM [rising, single point]
O=C(COc1coc(CN2CCN(c3ccccc3)CC2)cc1=O)NC1CCCC1	9.34%	2.31 µM [falling, single point]	–
O=C(CN1CCN(Cc2ccccc2)CC1)Nc1nc2ccccc2s1	11.3%	–	–
Cc1ccc(C2(CCNC(C)c3cccs3)CCOC(C(C)C)C2)cc1 (stereo not given)	-0.615%	–	–
COc1ccc(N=c2sc3ccccc3n2C)cc1	37.5%	6.51 µM [falling, partial curve, poor fit]	8.2 µM [rising, partial curve, poor fit]
O=C(CSc1nnc(CNC(=O)c2cccs2)o1)Nc1cccc(F)c1	32.9%	5.8 µM [rising, full curve]	0.0082 µM [rising, full curve, poor fit]
Cc1ccc(NC(=O)CN2C(=O)S/C(=C\c3ccccn3)C2=O)cc1C	-31.7%	–	4.61 µM [falling, full curve]
CCC1C(=O)NCCN1C(=O)c1ccccc1OC1CCN(S(C)(=O)=O)CC1 (stereo not given)	-10.9%	0.231 µM [falling, full curve, poor fit]	–
CCOC(=O)c1c(C)n(C(=O)c2ccco2)c(=O)n1C(=O)c1ccco1	-7.14%	–	–
CC(C)CCN1C(=O)c2ccc(C(=O)Nc3ccc(O)cc3C(=O)O)cc2C1=O	20.7%	–	0.651 µM [rising, full curve]
NS(=O)(=O)c1ccc(CCN=C(NS(=O)(=O)c2cccs2)c2ccccc2)cc1	-7.1%	1.84 µM [falling, partial curve, poor fit]	–
COc1ccc(CCNC(=O)CN(c2ccc(OC)c(OC)c2)S(C)(=O)=O)cc1	1.28%	–	–
O=C(NCc1cccnc1)C1CCCN(S(=O)(=O)c2cccc3nsnc23)C1 (stereo not given)	30.1%	0.00651 µM [rising, full curve, poor fit]	0.0731 µM [rising, full curve, poor fit]
N#Cc1ccncc1S(=O)c1ccc(Cl)cc1 (stereo not given)	30.8%	–	18.4 µM [rising, partial curve, poor fit]
Cc1cc(C)c(S(=O)(=O)c2ccccc2)c(OC(=O)c2c(F)cccc2Cl)n1	-46.7%	–	29.1 µM [falling, single point]
O=C(O)C1C2C=CC(C2)C1C(=O)NCCCN1CCOCC1 (stereo not given)	-36.1%	29.1 µM [falling, single point]	–
CCOC(=O)c1c(CN2CCN(C)CC2)n(-c2ccccc2)c2cc(Br)c(O)cc12	-2.22%	6.51 µM [rising, single point]	–
CCCN(Cc1ccccc1)C(=O)Nc1ccc2c(c1)nnn2C	–	–	6.51 µM [rising, partial curve]
CCOc1cc(C(=O)OCC(=O)Nc2ccc(Cl)cn2)ccc1OCC(=O)N1CCOCC1	31.6%	0.58 µM [rising, single point]	5.17 µM [rising, partial curve]

Source: PubChem BioAssay AID2685 (National Center for Advancing Translational Sciences (NCATS), 2010)
